# Data reported in article PMC5996148.
# Several values for one entry are separate records, joined by “and”; a condition that tells them apart may be missing. Equal values may be shown once. The list shows a part of the results.
# Key:
# Assay in all cases: protein microarray (ProtoArray v5.0), streptavidin-Alexa Fluor 647
# Details in all cases: 3'-biotin; 20 mM Tris (pH 7.5), 5 mM MgCl2, 100 mM KCl, 0.1% Tween-20, A/T-rich and random oligonucleotide blockers; temperature not stated; high values mean tight binding
# [1] = system: Protein FAM63B (human)
# [2] = system: Protein FAM73B (human)
# [3] = system: Protein NOXP20 (human)
# [4] = system: Protein Niban (human)
# [5] = system: Protein OSCP1 (human)
# [6] = system: Protein PPRC1 (human)
# [7] = system: Protein SCO2 homolog, mitochondrial (human)
# [8] = system: Protein TEX261 (human)
# [9] = system: Protein URG4 (human)
# [10] = system: Protein arginine N-methyltransferase 6 (human)
sequence,measurement,setting,value
GGGAGGCTGAGGCAGG [G4-1 biotinylated (PQS2)],binding signal,[1],-0.362 z-score
same,binding signal,[2],-0.313 z-score
same,binding signal,[3],-0.354 z-score
same,binding signal,[4],-0.334 z-score
same,binding signal,[5],-0.343 z-score
same,binding signal,[6],-0.357 z-score and -0.343 z-score
same,binding signal,[7],-0.272 z-score
same,binding signal,[8],-0.34 z-score
same,binding signal,[9],-0.277 z-score
same,binding signal,[10],-0.333 z-score

# 2 entries drawn at random from those above, as already listed:
sequence,measurement,setting,value
GGGAGGCTGAGGCAGG [G4-1 biotinylated (PQS2)],binding signal,[3],-0.354 z-score
same,binding signal,[2],-0.313 z-score
